No constants are given. Whether binding was seen depends on the method and setting. For part of these data: Binding calls can cover weak binding; strength is not graded here.
Experiments:
Experiment in all cases: two-hybrid; co-transformation of AH109 with bait plasmids (S-HDAg or its deletion mutants) and the prey plasmid hnRNPC(1-108); growth on SD/-Trp/-Leu/-Hist/-Ade/X-α-gal
[1] = target: GAL4BD/S-HDAg (1-62) (hepatitis delta virus)
[2] = target: GAL4BD/S-HDAg (98-195) (hepatitis delta virus)
[3] = target: GAL4BD/S-HDAg (63-97) (hepatitis delta virus)

B1: GAL4AD/hnRNPC(1-108) (domain or fragment, UniProt P07910-2 1-108)
chain: MASNVTNKTDPRSMNSRVFIGNLNTLVVKKSDVEAIFSKYGKIVGCSVHKGFAFVQYVNERNARAAVAGEDGRMIAGQVLDINLAAEPKVNRGKAGVKRSAAEMYGSS
- binding [1]: no binding
- binding [2]: binds
- binding [3]: no binding
